Patent US20090202520A1
Results are given in words; binding and its absence hold for the method and conditions named. Some binding calls cover weakened binding; strength is not graded here.

Amino acid sequences for entries named in this document (tags omitted). A change or cut given only in a name is not applied to a line headed by its entry. Residues count along the entry.
UniProt P12314, residues 16-292: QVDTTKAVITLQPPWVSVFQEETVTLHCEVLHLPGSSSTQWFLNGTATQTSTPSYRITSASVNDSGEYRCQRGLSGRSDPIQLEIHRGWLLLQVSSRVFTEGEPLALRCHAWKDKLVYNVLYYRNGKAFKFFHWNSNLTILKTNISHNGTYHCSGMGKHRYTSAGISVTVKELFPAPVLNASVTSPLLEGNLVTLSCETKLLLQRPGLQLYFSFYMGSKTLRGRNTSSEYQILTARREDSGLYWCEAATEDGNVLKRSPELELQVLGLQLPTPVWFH
UniProt P12318: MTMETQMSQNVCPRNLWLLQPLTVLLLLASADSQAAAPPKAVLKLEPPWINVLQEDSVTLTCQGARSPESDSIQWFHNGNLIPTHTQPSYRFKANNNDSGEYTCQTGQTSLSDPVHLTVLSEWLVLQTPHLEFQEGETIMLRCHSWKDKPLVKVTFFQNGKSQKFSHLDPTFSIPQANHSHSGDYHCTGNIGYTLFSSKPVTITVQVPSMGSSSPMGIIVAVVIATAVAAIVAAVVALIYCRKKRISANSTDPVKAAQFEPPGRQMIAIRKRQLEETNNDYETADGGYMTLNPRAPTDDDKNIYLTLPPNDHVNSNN

Experiments:
[1] = target: serum amyloid P (SAP) (human), P02743; assay: SPR, rank order of affinities; conditions: remark: other sources report otherwise
[2] = target: serum amyloid P (SAP) (human), P02743; assay: SPR (Biacore X100), single cycle kinetics; SAP bound and briefly amine-coupled on CM5 chip, sFcγRIIIB flowed at five rising concentrations; human serum albumin reference cell subtracted; conditions: remark: other sources report otherwise
[3] = target: soluble recombinant FcγRI (sFcγRI) (UniProt P12314); assay: SPR sensorgram
[4] = target: soluble recombinant FcγRIIIB (sFcγRIIIB) (UniProt O75015); assay: SPR sensorgram
[5] = target: soluble recombinant FcγRI (sFcγRI) (UniProt P12314); assay: SPR, comparison of SAP and CRP affinities
[6] = target: soluble recombinant FcγRIIA (H131 variant) (human) (UniProt P12318); assay: SPR, comparison of SAP and CRP affinities
[7] = target: soluble recombinant FcγRIIIB (sFcγRIIIB) (UniProt O75015); assay: SPR, comparison of SAP and CRP affinities
[8] = target: soluble recombinant FcγRI (sFcγRI) (UniProt P12314); assay: SPR (Biacore X100), CRP captured on PC-KLH on CM5 chip
[9] = target: soluble recombinant FcγRIIA (H131 variant) (human) (UniProt P12318); assay: as above
[10] = target: soluble recombinant FcγRIIIB (sFcγRIIIB) (UniProt O75015); assay: as above
[11] = target: soluble recombinant FcγRI (sFcγRI) (UniProt P12314); assay: SPR, response at equilibrium against receptor concentration
[12] = target: soluble recombinant FcγRIIIB (sFcγRIIIB) (UniProt O75015); assay: as above

Measured: binding

B1: soluble recombinant FcγRIIIB (sFcγRIIIB), O75015 17-200 (receptor, UniProt O75015 17-200, looked up, not shown: small tags and cut ends)
chain: GMRTEDLPKAVVFLEPQWYSVLEKDSVTLKCQGAYSPEDNSTQWFHNENLISSQASSYFIDAATVNDSGEYRCQTNLSTLSDPVQLEVHIGWLLLQAPRWVFKEEDPIHLRCHSWKNTALHKVTYLQNGKDRKYFHHNSDFHIPKATLKDSGSYFCRGLVGSKNVSSETVNITITQGLAVSTIS
binds: [1] | [2]

B2: C-reactive protein (CRP) (ligand, human, UniProt P02741 19-224, looked up)
chain: QTDMSRKAFVFPKESDTSYVSLKAPLTKPLKAFTVCLHFYTELSSTRGYSIFSYATKRQDNEILIFWSKDIGYSFTVGGSEILFEVPEVTVAPVHICTSWESASGIVEFWVDGKPRVRKSLKKGYTVGAEASIILGQEQDSFGGNFEGSQSLVGDIGNVNMWDFVLSPDEINTIYLGGPFSPNVLNWRALKYEVQGEVFTKPQLWP
binds: [3] | [4] | [5] | [6] | [7] | [8] | [9] | [10] | [11] | [12]
